These are yes or no findings as the source states them, for the method shown. A result given as binding can be weak or reduced; the word gives no strength.
Target: T1, rabbit fructose-bisphosphate aldolase (rabbit (O. cuniculus)) (UniProt P00883)
T1 sequence: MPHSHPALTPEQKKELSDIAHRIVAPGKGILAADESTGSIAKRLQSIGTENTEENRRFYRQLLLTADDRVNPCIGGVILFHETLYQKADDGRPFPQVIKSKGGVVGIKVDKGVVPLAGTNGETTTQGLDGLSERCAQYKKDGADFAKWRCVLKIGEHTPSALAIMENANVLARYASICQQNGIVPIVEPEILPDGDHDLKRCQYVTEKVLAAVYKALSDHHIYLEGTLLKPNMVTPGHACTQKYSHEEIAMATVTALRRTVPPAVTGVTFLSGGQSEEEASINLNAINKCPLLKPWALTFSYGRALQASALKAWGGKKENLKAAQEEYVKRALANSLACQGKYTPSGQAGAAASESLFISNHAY
Assay: far-Western, overlay or dot blot; rabbit glycolytic enzymes (3 µg per lane) run on SDS-PAGE and blotted on nitrocellulose; His-wBm0432 in solution (3 µg/ml by the methods, 2 µg/ml by the legend), 3 h, room temperature, overlay buffer 50 mM HEPES pH 7.3, 3 mM EGTA, 3 mM CaCl2, 3 mM MgCl2, 80 mM KCl, 0.1 mM DTT, 5% skim milk; detected with HRP anti-His antibody; both purified

recombinant His-tagged Wolbachia surface protein wBm0432
binding: binds
